Measured values from patent US20100062000A1.
These are yes or no findings as the source states them, for the method shown. Binding seen in cells or lysates may run through a third protein. Some binding calls cover weakened binding; strength is not graded here.

Chains of the proteins cited; added tags and fusions are not shown. Residues count along the entry.
UniProt P27361, residues 2-379: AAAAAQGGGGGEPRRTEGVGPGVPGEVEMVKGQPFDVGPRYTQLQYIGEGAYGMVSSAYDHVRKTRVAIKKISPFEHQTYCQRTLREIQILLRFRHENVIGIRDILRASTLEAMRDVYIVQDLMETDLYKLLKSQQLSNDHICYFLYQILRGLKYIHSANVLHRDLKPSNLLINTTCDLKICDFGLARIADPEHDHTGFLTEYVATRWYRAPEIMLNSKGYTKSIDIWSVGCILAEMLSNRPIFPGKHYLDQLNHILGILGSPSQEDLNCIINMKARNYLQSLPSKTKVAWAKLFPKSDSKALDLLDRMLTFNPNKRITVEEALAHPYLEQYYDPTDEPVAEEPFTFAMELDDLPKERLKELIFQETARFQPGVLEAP

How the values were obtained:
ERK1 (human) [1] = target: ERK1 (human) (UniProt P27361); experiment: summary of co-immunoprecipitation and pull-down assays
ERK1 (human) [2] = target: ERK1 (human) (UniProt P27361); experiment: co-immunoprecipitation from cell lysates, western blot
ERK1 (human) [3] = target: ERK1 (human) (UniProt P27361); experiment: co-immunoprecipitation from cell lysates: IP Rhamm, immunoblot ERK1,2

Measured: binding

B1: Rhamm (Receptor for Hyaluronic Acid Mediated Motility), protein form not specified (receptor, human, UniProt O75330 1-724, looked up)
chain: MSFPKAPLKRFNDPSGCAPSPGAYDVKTLEVLKGPVSFQKSQRFKQQKESKQNLNVDKDTTLPASARKVKSSESKESQKNDKDLKILEKEIRVLLQERGAQDRRIQDLETELEKMEARLNAALREKTSLSANNATLEKQLIELTRTNELLKSKFSENGNQKNLRILSLELMKLRNKRETKMRGMMAKQEGMEMKLQVTQRSLEESQGKIAQLEGKLVSIEKEKIDEKSETEKLLEYIEEISCASDQVEKYKLDIAQLEENLKEKNDEILSLKQSLEENIVILSKQVEDLNVKCQLLEKEKEDHVNRNREHNENLNAEMQNLKQKFILEQQEREKLQQKELQIDSLLQQEKELSSSLHQKLCSFQEEMVKEKNLFEEELKQTLDELDKLQQKEEQAERLVKQLEEEAKSRAEELKLLEEKLKGKEAELEKSSAAHTQATLLLQEKYDSMVQSLEDVTAQFESYKALTASEIEDLKLENSSLQEKAAKAGKNAEDVQHQILATESSNQEYVRMLLDLQTKSALKETEIKEITVSFLQKITDLQNQLKQQEEDFRKQLEDEEGRKAEKENTTAELTEEINKWRLLYEELYNKTKPFQLQLDAFEVEKQALLNEHGAAQEQLNKIRDSYAKLLGHQNLKQKIKHVVKLKDENSQLKSEVSKLRCQLAKKKQSETKLQEELNKVLGIKHFDPSKAFHHESKENFALKTPLKEGNTNCYRAPMECQESWK
binds: all assays above
